{"source": "the supplement of paper PMC11438910", "assay_in_all_cases": "fluorescence intensity of antibody binding to polysaccharide-coupled beads; higher = stronger binding", "key": {"[1]": {"biological_target": "pneumococcal polysaccharide Pn7A"}, "[2]": {"biological_target": "pneumococcal polysaccharide Pn7B"}, "[3]": {"biological_target": "pneumococcal polysaccharide Pn7C"}, "[4]": {"biological_target": "pneumococcal polysaccharide Pn7F"}, "[5]": {"biological_target": "pneumococcal polysaccharide Pn8"}, "[6]": {"biological_target": "pneumococcal polysaccharide Pn9A"}, "[7]": {"biological_target": "pneumococcal polysaccharide Pn9L"}, "[8]": {"biological_target": "pneumococcal polysaccharide Pn9N"}, "[9]": {"biological_target": "pneumococcal polysaccharide Pn9V"}, "[10]": {"conditions": "antibody concentration 2.8593 ng/mL"}, "[11]": {"conditions": "antibody concentration 15.2894 ng/mL"}, "[12]": {"conditions": "antibody concentration 81.7561 ng/mL"}, "[13]": {"conditions": "antibody concentration 437.17 ng/mL"}, "[14]": {"conditions": "antibody concentration 2337.65 ng/mL"}, "[15]": {"conditions": "antibody concentration 12500 ng/mL"}, "[16]": {"conditions": "antibody concentration 0.1 ng/mL"}, "[17]": {"conditions": "antibody concentration 0.534724 ng/mL"}}, "note": "The other results are listed elsewhere or left out. The signal is at background level for most entries.", "data": [{"binder": "3S41.4 (protein) chain 1: EVQLVESGGGLVQPGGSLRLSCATSGFTFSNYWMYWFRQAPGKGLEWVSTISGSSTNTYYSGSVKGRFTISRDNAKNTLYLQMNSLRAEDTAVYYCARRGTDSSHWYFDLWGPGTPITVSS chain 2: EIVMTQSPATLSLSPGERATLSCRASQSVSSNLAWYQQKPGQGPRLLIYDASNRATGIPDRFGGSGSGTDFTLTISSLEPEDVGVYYCQQESNWPLTFGGGTKVEIK", "values": [{"measurement": "fluorescence intensity", "setting": "[1]; [10]", "value": 20, "unit": "MFI"}, {"measurement": "fluorescence intensity", "setting": "[1]; [11]", "value": 20.2, "unit": "MFI"}, {"measurement": "fluorescence intensity", "setting": "[1]; [12]", "value": 19, "unit": "MFI"}, {"measurement": "fluorescence intensity", "setting": "[1]; [13]", "value": 23.5, "unit": "MFI"}, {"measurement": "fluorescence intensity", "setting": "[1]; [14]", "value": 42.5, "unit": "MFI"}, {"measurement": "fluorescence intensity", "setting": "[1]; [15]", "value": 183, "unit": "MFI"}, {"measurement": "fluorescence intensity", "setting": "[2]; [16]", "value": 16.2, "unit": "MFI"}, {"measurement": "fluorescence intensity", "setting": "[2]; [17]", "value": 14.5, "unit": "MFI"}, {"measurement": "fluorescence intensity", "setting": "[2]; [10]", "value": 17, "unit": "MFI"}, {"measurement": "fluorescence intensity", "setting": "[2]; [11]", "value": 16.2, "unit": "MFI"}, {"measurement": "fluorescence intensity", "setting": "[2]; [12]", "value": 14, "unit": "MFI"}, {"measurement": "fluorescence intensity", "setting": "[2]; [13]", "value": 13.5, "unit": "MFI"}, {"measurement": "fluorescence intensity", "setting": "[2]; [14]", "value": 20.2, "unit": "MFI"}, {"measurement": "fluorescence intensity", "setting": "[2]; [15]", "value": 54.2, "unit": "MFI"}, {"measurement": "fluorescence intensity", "setting": "[3]; [16]", "value": 16, "unit": "MFI"}, {"measurement": "fluorescence intensity", "setting": "[3]; [17]", "value": 14.5, "unit": "MFI"}, {"measurement": "fluorescence intensity", "setting": "[3]; [10]", "value": 15.5, "unit": "MFI"}, {"measurement": "fluorescence intensity", "setting": "[3]; [11]", "value": 16, "unit": "MFI"}, {"measurement": "fluorescence intensity", "setting": "[3]; [12]", "value": 14.2, "unit": "MFI"}, {"measurement": "fluorescence intensity", "setting": "[3]; [13]", "value": 17.5, "unit": "MFI"}, {"measurement": "fluorescence intensity", "setting": "[3]; [14]", "value": 20.5, "unit": "MFI"}, {"measurement": "fluorescence intensity", "setting": "[3]; [15]", "value": 45.5, "unit": "MFI"}, {"measurement": "fluorescence intensity", "setting": "[4]; [16]", "value": 15, "unit": "MFI"}, {"measurement": "fluorescence intensity", "setting": "[4]; [17]", "value": 14.5, "unit": "MFI"}, {"measurement": "fluorescence intensity", "setting": "[4]; [10]", "value": 13, "unit": "MFI"}, {"measurement": "fluorescence intensity", "setting": "[4]; [11]", "value": 14, "unit": "MFI"}, {"measurement": "fluorescence intensity", "setting": "[4]; [12]", "value": 15.5, "unit": "MFI"}, {"measurement": "fluorescence intensity", "setting": "[4]; [13]", "value": 15.5, "unit": "MFI"}, {"measurement": "fluorescence intensity", "setting": "[4]; [14]", "value": 24.5, "unit": "MFI"}, {"measurement": "fluorescence intensity", "setting": "[4]; [15]", "value": 102, "unit": "MFI"}, {"measurement": "fluorescence intensity", "setting": "[5]; [16]", "value": 21.5, "unit": "MFI"}, {"measurement": "fluorescence intensity", "setting": "[5]; [17]", "value": 21.5, "unit": "MFI"}, {"measurement": "fluorescence intensity", "setting": "[5]; [10]", "value": 21, "unit": "MFI"}, {"measurement": "fluorescence intensity", "setting": "[5]; [11]", "value": 21, "unit": "MFI"}, {"measurement": "fluorescence intensity", "setting": "[5]; [12]", "value": 22.5, "unit": "MFI"}, {"measurement": "fluorescence intensity", "setting": "[5]; [13]", "value": 23.5, "unit": "MFI"}, {"measurement": "fluorescence intensity", "setting": "[5]; [14]", "value": 29, "unit": "MFI"}, {"measurement": "fluorescence intensity", "setting": "[5]; [15]", "value": 50, "unit": "MFI"}, {"measurement": "fluorescence intensity", "setting": "[6]; [16]", "value": 20.5, "unit": "MFI"}, {"measurement": "fluorescence intensity", "setting": "[6]; [17]", "value": 18.5, "unit": "MFI"}, {"measurement": "fluorescence intensity", "setting": "[6]; [10]", "value": 19.2, "unit": "MFI"}, {"measurement": "fluorescence intensity", "setting": "[6]; [11]", "value": 19, "unit": "MFI"}, {"measurement": "fluorescence intensity", "setting": "[6]; [12]", "value": 18, "unit": "MFI"}, {"measurement": "fluorescence intensity", "setting": "[6]; [13]", "value": 19.8, "unit": "MFI"}, {"measurement": "fluorescence intensity", "setting": "[6]; [14]", "value": 24.5, "unit": "MFI"}, {"measurement": "fluorescence intensity", "setting": "[6]; [15]", "value": 58.2, "unit": "MFI"}, {"measurement": "fluorescence intensity", "setting": "[7]; [16]", "value": 18, "unit": "MFI"}, {"measurement": "fluorescence intensity", "setting": "[7]; [17]", "value": 16.8, "unit": "MFI"}, {"measurement": "fluorescence intensity", "setting": "[7]; [10]", "value": 16.5, "unit": "MFI"}, {"measurement": "fluorescence intensity", "setting": "[7]; [11]", "value": 18, "unit": "MFI"}, {"measurement": "fluorescence intensity", "setting": "[7]; [12]", "value": 18.5, "unit": "MFI"}, {"measurement": "fluorescence intensity", "setting": "[7]; [13]", "value": 16.5, "unit": "MFI"}, {"measurement": "fluorescence intensity", "setting": "[7]; [14]", "value": 21.5, "unit": "MFI"}, {"measurement": "fluorescence intensity", "setting": "[7]; [15]", "value": 43, "unit": "MFI"}, {"measurement": "fluorescence intensity", "setting": "[8]; [16]", "value": 15.5, "unit": "MFI"}, {"measurement": "fluorescence intensity", "setting": "[8]; [17]", "value": 15.8, "unit": "MFI"}, {"measurement": "fluorescence intensity", "setting": "[8]; [10]", "value": 16, "unit": "MFI"}, {"measurement": "fluorescence intensity", "setting": "[8]; [11]", "value": 15.5, "unit": "MFI"}, {"measurement": "fluorescence intensity", "setting": "[8]; [12]", "value": 15.2, "unit": "MFI"}, {"measurement": "fluorescence intensity", "setting": "[8]; [13]", "value": 17, "unit": "MFI"}, {"measurement": "fluorescence intensity", "setting": "[8]; [14]", "value": 21.5, "unit": "MFI"}, {"measurement": "fluorescence intensity", "setting": "[8]; [15]", "value": 40.5, "unit": "MFI"}, {"measurement": "fluorescence intensity", "setting": "[9]; [16]", "value": 13.5, "unit": "MFI"}, {"measurement": "fluorescence intensity", "setting": "[9]; [17]", "value": 15, "unit": "MFI"}, {"measurement": "fluorescence intensity", "setting": "[9]; [10]", "value": 14, "unit": "MFI"}, {"measurement": "fluorescence intensity", "setting": "[9]; [11]", "value": 13.5, "unit": "MFI"}, {"measurement": "fluorescence intensity", "setting": "[9]; [12]", "value": 14.5, "unit": "MFI"}, {"measurement": "fluorescence intensity", "setting": "[9]; [13]", "value": 15, "unit": "MFI"}, {"measurement": "fluorescence intensity", "setting": "[9]; [14]", "value": 18, "unit": "MFI"}, {"measurement": "fluorescence intensity", "setting": "[9]; [15]", "value": 26, "unit": "MFI"}]}]}
